# Laboratory results taken from PubChem BioAssay AID1347076 (National Center for Advancing Translational Sciences (NCATS), 2019).
# Screen size: about 400,000 compounds; about 13,000 (3.2%) were called active. Inconclusive results, whose numbers are uncertain, are shown with a selection of clear calls. The call rests on the fitted dose curve; in most records, active means well fitted cell-killing curve with a large enough effect; inconclusive means small, poorly fitted or top-dose-only effect, or effect the other way; inactive means flat fitted curve, though single readings scatter. A potency beside an inconclusive call is a rough fit, not a confirmed value.
# Assay: qHTS assay for MDR1-selective chemotherapeutics: Primary screen using the drug-selected MDR subline cells KB-V1; further: nearly all actives have a fitted effect of over 60% in size
# Details: KB-V1 MDR cells viability, CellTiter-Glo, 72 h; activity change, negative = cytotoxicity: at 46.1 µM (top of the series)
# Method in brief: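 Cells of the MDR subline KB-V1 are plated, dosed with compound at multiple concentrations, and incubated 72 h at 37 degrees C; CellTiter-Glo is then added and luminescence read after 10 min.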
# On the % scale 0 is the no-effect control and ±100 the full control effect; potency means the concentration at half of the fitted maximal effect.
SMILES,"activity change, negative = cytotoxicity",Potency
O=C(COC(=O)COc1ccc(Cl)cc1)Nc1ncc(Br)s1,inactive: 0%,
CCN1C(=O)C(CC(=O)Nc2ccc(F)cc2)N(CCc2ccc(OC)cc2)C1=S (configuration not stated),inactive: 15.5%,
CC1CCN(C(=O)CNC(=O)c2ccc(Cl)cc2Cl)CC1,inactive: 0%,
CCCCNC(=O)c1ccc2c(c1)ncn2C1CCCC1,inactive: 0.0413%,
Cc1ccc(NC(=O)CNC(=O)c2ccco2)cc1,inactive: 0%,
COc1ccc(OCCSc2nnc3sc4ccccc4n23)cc1,,"inconclusive: 18.4 µM [cytotoxic, single point]"
CCCc1c(-c2ccc(Cl)cc2)ncn1CCc1ccccc1OC,,active: 18.4 µM
c1ccc(-n2nnnc2-c2cnc(-c3ccncc3)nc2-c2cccs2)cc1,,"inconclusive: 20.6 µM [cytotoxic, single point]"
COc1ccc(C(=O)COC(=O)CCCC(=O)Nc2ccc(C(C)=O)cc2)cc1,inactive: -0.781%,
CCOC(=O)c1ccc(Nc2cc(C)nc3ncnn23)cc1,,"inconclusive: 18.4 µM [cytotoxic, single point]"
Cc1ccc(NC(=O)CN2CC(C)SC2=NC2CCCCC2)cc1 (configuration not stated),,"inconclusive: 18.4 µM [cytotoxic, partial curve, poor fit]"
CN1CCN(C(=S)Nc2ccc([N+](=O)[O-])cc2)CC1,inactive: 4.5%,
C[C@H]1CN([C@@H](C)CO)C(=O)CCCn2nncc2CO[C@H]1CN(C)S(=O)(=O)c1ccc(-n2cccn2)cc1,inactive: -0.799%,
CCOC(=O)NC(=S)Nc1cccc(NC(=S)NC(=O)OCC)c1,inactive: 14%,
COC(=O)[C@@]12C[C@@H](CC(=O)NCCc3ccccc3OC)C(=O)N(CCc3ccc(OC)c(OC)c3)C1=CCC(C)(C)C2,,active: 20.6 µM
O=C(c1ccc(Cl)cc1)C1CCN(C(=O)c2ccc(F)cc2)CC1,,"inconclusive: 29.1 µM [cytotoxic, single point]"
N#C/C(=C\Nc1ccccc1SC(F)(F)F)c1nc(-c2ccc(F)cc2)cs1,,"inconclusive: 4.61 µM [rising, full curve, poor fit]"
CNC(=O)NC(=O)CSc1ccc(S(=O)(=O)N(C)C2CCCCC2)cn1,,"inconclusive: 20.6 µM [cytotoxic, single point]"
CC1=C(C(=O)Nc2cc(C(=O)N(C)Cc3ccccc3)ccc2C)SCCO1,inactive: -48.5%,
COc1ccc(NC(=O)C(=O)N/N=C/c2cccnc2)cc1,,"inconclusive: 0.517 µM [rising, partial curve, poor fit]"
Nc1nc2ccccc2n1/N=C/c1ccc([N+](=O)[O-])s1,,"inconclusive: 4.11 µM [cytotoxic, full curve, poor fit]"
CCCCc1c(O)nc(SCC(=O)Nc2cccc3ccccc23)n(-c2ccccc2OC)c1=O,,"inconclusive: 29.1 µM [rising, single point]"
COc1ccc2c(c1)OC[C@H]1[C@H]2N2C(=O)c3ccc(F)cc3NC(=O)[C@@]2(C)[C@H]1c1ccccc1,,"inconclusive: 18.4 µM [cytotoxic, single point]"
O=C(NCc1nnnn1-c1ccccc1)c1ccc2ccccc2c1,,"inconclusive: 9.2 µM [cytotoxic, partial curve, poor fit]"

SMILES,"activity change, negative = cytotoxicity",Potency
O=C(Nc1ccc(N2CCN(C(=O)c3ccccc3)CC2)cc1)c1cc2ccccc2o1,,"inconclusive: 25.9 µM [cytotoxic, partial curve, poor fit]"
Cc1ccc(S(=O)(=O)O/N=C2\CCCc3ccccc32)cc1,inactive: 17.1%,
COc1cc(C)c(C(N)=O)c(OC)n1,,"inconclusive: 29.1 µM [rising, single point]"
Cc1ccc(NC2OC(CO)C(O)C2O)cc1[N+](=O)[O-] (configuration not stated),inactive: -13.8%,
CN(C)S(=O)(=O)c1ccc(N2CCCC2)c(C(=O)NNC(=O)COc2cccc(F)c2)c1,inactive: 3.65%,
COC(=O)[C@]12CCCCC=C1N(CCc1ccc(OC)c(OC)c1)C(=O)[C@H](CC(=O)NCc1ccc(C)o1)C2,,"inconclusive: 5.8 µM [cytotoxic, partial curve, poor fit]"
CCC(=O)Nc1nnc(SCC(=O)NCCc2ccc(OC)c(OC)c2)s1,,"inconclusive: 0.0052 µM [rising, full curve, poor fit]"
Cc1cccc(-n2cnc3c(c2=O)c2nc4ccccc4nc2n3Cc2ccco2)c1,inactive: 5.05%,
COC(=O)c1c(C)[nH]c(C(=O)/C=C/c2ccc(Cl)cc2)c1C,,active: 14.6 µM
COc1cccc(C(=O)NCCS(=O)(=O)N2CCN(c3ccccc3)CC2)c1OC,,"inconclusive: 23.1 µM [cytotoxic, single point]"
CCOC(=O)N1N=C(CC)CC1(O)C(F)(F)F (configuration not stated),,"inconclusive: 9.2 µM [rising, partial curve, poor fit]"
Cn1cccc1C(=O)OCC(=O)NCCc1ccc(S(N)(=O)=O)cc1,,"inconclusive: 29.1 µM [rising, single point]"
CCc1cccc(C)c1NS(=O)(=O)c1ccc2c(c1)NC(=O)C(C)C(=O)N2 (configuration not stated),inactive: 4.27%,
C=Cc1ccc(CC2(C)C(=O)Nc3ccc(Cl)cc32)cc1 (configuration not stated),inactive: 2.53%,
CCCOc1ccc(F)cc1-c1cc(C(=O)Nc2ccc(OC)c(OC)c2)[nH]n1,,active: 20.6 µM
COC(=O)c1sccc1S(=O)(=O)N(CC(=O)Nc1cc(C)cc(C)c1)c1ccc(Cl)cc1,inactive: -15.5%,
c1ccc(-c2ccncn2)cc1,inactive: 0.596%,
Cc1nc(N)sc1Cc1ccc2c(c1)OCO2,inactive: 2.95%,
COc1cc(/C=N/N2CCN(c3ccccc3)CC2)ccc1OC(C)=O,,"inconclusive: 29.1 µM [rising, single point]"
O=C(NCCc1ccccn1)c1c(-c2ccsc2)sc2ccccc12,inactive: 0.0002%,
COc1cccc(CN2C(=O)[C@@H]3Cc4c([nH]c5ccccc45)C(C)(C)N3C2=O)c1,,"inconclusive: 18.4 µM [cytotoxic, single point]"
COc1ccccc1Cn1c(C)c(C(=O)NCc2ccco2)sc1=O,,"inconclusive: 20.6 µM [cytotoxic, single point]"
CCn1cc(C(=O)NCC(OC)OC)c(=O)c2cc(S(=O)(=O)N(C)C3CCCCC3)ccc21,,"inconclusive: 0.103 µM [cytotoxic, full curve]"

# Part of the list above, with bars between the fields:
SMILES | activity change, negative = cytotoxicity | Potency
CCCOc1ccc(F)cc1-c1cc(C(=O)Nc2ccc(OC)c(OC)c2)[nH]n1 |  | active: 20.6 µM
COC(=O)c1sccc1S(=O)(=O)N(CC(=O)Nc1cc(C)cc(C)c1)c1ccc(Cl)cc1 | inactive: -15.5% | 
c1ccc(-c2ccncn2)cc1 | inactive: 0.596% | 
Cc1nc(N)sc1Cc1ccc2c(c1)OCO2 | inactive: 2.95% | 
